Data reported in paper PMC10163288.
The other results are listed elsewhere or left out.

B1: il10ra_site1_normal_mot_HHH_b2_00984_000000042_0001_1_20_H_._HHH_b2_07534_0001_0000600066_0000001_1 (protein)
chain: SSSSDEEEKRLEELLEEVRELLERGDPERAARLAQELLRHIFRASDEEALQELWELIKREASSSS
B2: il10ra_site1_normal_mot_HHH_b2_03568_000000058_0001_1_19_H_._HHH_b2_02970_0001_0000300026_0000001_0 (protein)
chain: SSSSDESYELARRVIEETIELLRQGDEEEAEKLLREAERLLEELGDFSALFAIKRLLRLVTSSSS
B3: il10ra_site1_normal_mot_HHH_b1_06912_af2_000000235_0001_1_15_H_._HHH_b2_01017_af2_0001_0000100001_0000002_0_af2pred_dldesign_0_af2pred (protein)
chain: SSSSSSSPESEEIYALIREALALEDKEEAKAKLEEALELAKKNNDEIAIETINYALSQLSSSSSS
B4: il10ra_site1_sap_13_mot_HHH_b1_01827_000000263_0001_1_19_H_._HHH_b2_02299_0001_0000200019_0000001_0_0001 (protein)
chain: SSSSDEELQEALRLVLEAFRALLRGDEEKARELLQRALELAEEANDPRAALAIRALLEALNSSSS
B5: il10ra_site1_normal_mot_HHH_b2_02337_000000026_0001_38_52_H_._HHH_b1_08573_0001_0000300047_0000001_0 (protein)
chain: SSSDEEEEIEELIERVEELIKEGDLEEARQVLFEAVHLAAKLGDQELLRELWELVRLLFELSSSS
B6: il10ra_site1_normal_mot_HHH_b1_06912_af2_000000235_0001_1_15_H_._HHH_b2_07253_0001_0000300013_0000001_0_af2pred_0001 (protein)
chain: SSSSSAQEEAERLFEEAEELIEEGDRRRVLELIRLILQLAHENNNPEIFRLAEHLVQLIGSSSSS
B7: il10ra_site1_normal_mot_HHH_b2_00800_af2_000000047_0001_1_20_H_._HHH_b2_07930_0001_0000100001_0000001_0 (protein)
chain: SSSSQEEYEFAREAIEELIRLAREGNEEEFRRLAEEVREFLEEANNLSALFAIEHLVRLVLSSSS
B8: il10ra_site1_normal_mot_HHH_b1_01879_000000050_0001_1_18_H_._HHH_b2_01804_0001_0000100006_0000001_0 (protein)
chain: SSSSDLEEEVEKAEERAEELLKRGNKEEAARLLFQIQIKAWRNNNEELARELAEVQIRILKSSSS
B9: il10ra_site1_sap_18_mot_HHH_b2_04646_000000019_0001_1_20_H_._HHH_b2_00027_0001_0000600010_0000001_0_0001 (protein)
chain: SSSSTDELFEEVERAIEEASELWEEGNPEEAEEVLEEALRLARENNNWATVFSLEHALRVASSSS
B10: il10ra_site1_sap_22_mot_HHH_b1_03260_000000175_0001_42_57_H_._HHH_b1_05644_af2_0001_0000100002_0000001_0_0001_af2pred_dldesign_0_af2pred (protein)
chain: SSSSDLIKRAYLLACEAYRLAKEKGDEETVEEIARLLHEISRTGDPALLERLEALYARLLESSSS
B11: il10ra_site1_normal_mot_HHH_b1_05056_000000217_0001_1_20_H_._HHH_b2_06136_0001_0000100001_0000001_0 (protein)
chain: SSSSSSELEELLEEIKELLENGDPEEALRLIWEAVHLAVELDDRETIQELAELLREVYEASSSSS
B12: il10ra_site1_sap_24_mot_HHH_b1_03260_000000175_0001_42_57_H_._HHH_b2_07663_af2_0001_0000500041_0000001_0_0001 (protein)
chain: SSSSSSRELYELSREAMELLRNGDPEEAERVVEEAIELAQEENNWAVLAALEHVLEQIESSSSSS
B13: il10ra_site1_sap_18_mot_HHH_b2_01235_000000294_0001_1_18_H_._HHH_b2_06844_0001_0000100004_0000001_1_0001_af2pred_dldesign_0_af2pred (protein)
chain: SSSSSSSNERQRVEALLYYASLSRSPEAARIALERAVELATALGDEELLARARAALAEISSSSSS
B14: il10ra_site1_sap_21_mot_69d334f8f173c11440ed040fdc4c94a9_0001_1_000000074_0001_19_34_H_._HHH_b1_08371_0001_0000100008_0000001_0_0001 (protein)
chain: SSSSDAAEFLLEQAERAIELAREAGDEELVKHILEMAENLAKQLNDEEVERELKELLEELHSSSS
B15: il10ra_site1_normal_mot_HHH_b1_05937_af2_000000262_0001_20_37_H_._HHH_b2_02616_0001_0000100004_0000001_0 (protein)
chain: SSSSDEEERLEQLLEELERLLEEGDRERFLRVAIEILRLAFELGDEEALQIVWELVQKLNSSSSS
B16: il10ra_site1_sap_27_mot_HHH_b1_04693_000000238_0001_19_36_H_._HHH_b2_01347_0001_0000200014_0000001_1_0001 (protein)
chain: SSSSDEEHQEVIELIMRAARLMIRGNPEEARKLLEEALELAEELNDEELFKLIQLFLEQIRSSSS
B17: il10ra_site1_sap_22_mot_HHH_b1_07563_000000100_0001_1_20_H_._HHH_b1_07925_0001_0000100001_0000001_0_0001 (protein)
chain: SSSSDEEKELVEAALRLVEQAEEWGDPESARFLLEAAKLIAEDANDPELERLVEEVEEKLSSSSS
B18: il10ra_site1_sap_17_mot_HHH_b1_02708_af2_000000019_0001_23_39_H_._9bea83002f54911cbf225d03fb4c55e1_0001_0001_0000200014_0000001_0_0001 (protein)
chain: SSSSDMEESARLDLEAAELAAEEGNEELVRATIRFAEQAARYAGNEELEKEIKELEERFNSSSSS
B19: il10ra_site1_normal_mot_HHH_b1_04771_000000013_0001_40_56_H_._HHH_b1_07968_af2_0001_0000200010_0000001_0 (protein)
chain: SSSSDDESQKAAELSLRAFRLALRGNPEEAEEVLEEAHELAREAGDERLARVIEELLQALSSSSS
B20: il10ra_site1_sap_31_mot_HHH_b1_01513_af2_000000021_0001_1_16_H_._HHH_b2_03304_0001_0000100005_0000001_0_0001 (protein)
chain: SSSSDEELRELYELARELAEAAHEGDKERAREIAEEARELAEELGSRVILFLIRNMLERLSSSSS
B21: il10ra_site1_sap_5_mot_HHH_b2_01447_af2_000000258_0001_1_20_H_._HHH_b2_07514_0001_0000100008_0000001_0_0001 (protein)
chain: SSSSSFAERSVRRLLEAAKDLEDPEYVRMTLRFAKALARANNNEELEREIEKVEKELEELLSSSS
B22: il10ra_site1_normal_mot_HHH_b1_08477_000000091_0001_40_57_H_._HHH_b2_05084_0001_0000800035_0000001_0 (protein)
chain: SSSSDIAEETARFLLEMAERLIEQGNPEYARQALRFALRLARDAGNPELEEEIQKLLEELGSSSS
B23: il10ra_site1_normal_mot_HHH_b1_02397_af2_000000085_0001_39_57_H_._HHH_b2_05327_0001_0000500035_0000002_0 (protein)
chain: SSSSSEEEEELERLLEEIEEAVRRGDPELFARLAQELLRLAFRLSDQEVLQRLHRLIKEATSSSS
B24: il10ra_site1_normal_mot_HHH_b2_00730_000000084_0001_1_16_H_._HHH_b1_03899_0001_0000200017_0000001_0 (protein)
chain: SSSSDNAEQIKRAFEQSFERALEAGDEEYLRLLLHFLRALAEDLNDPELRELVEELEELLRSSSS
B25: il10ra_site1_normal_mot_HHH_b1_02062_000000185_0001_1_20_H_._HHH_b1_07000_0001_0000400028_0000001_0_af2pred_0001 (protein)
chain: SSSSDRHEVLRLSREVNKLYSDGDPEEAQKLVEEALELAREEGNLILLYILESLERRIERSSSSS
B26: il10ra_site1_sap_17_mot_HHH_b1_05370_000000138_0001_1_16_H_._HHH_b1_03156_0001_0000500049_0000001_0_0001 (protein)
chain: SSSSSESQELYRLSREAMELLREGNPEEAQKVVEEAIELAEELNNPAFLYNLRHVLRAIRSSSSS
B27: il10ra_site1_normal_mot_HHH_b1_02997_000000220_0001_39_52_H_._HHH_b2_02758_0001_0000200017_0000001_0_af2pred_0001 (protein)
chain: SSSSSSQEEVLELIREAWEIDDLEEAREVLEEALELAKELGDEQLRELVERLLRQLELLSSSSSS
B28: il10ra_site1_sap_11_mot_HHH_b2_06497_000000202_0001_1_20_H_._HHH_b1_07730_0001_0000300024_0000001_0_0001 (protein)
chain: SSSSDMYEEVKRLIEEIVRLAREGDEERAEELLEELEELAREHNSPVIEFVIELLRRDLENSSSS
B29: il10ra_site1_sap_13_mot_HHH_b2_04680_000000215_0001_1_16_H_._HHH_b2_04522_af2_0001_0000600020_0000002_0_0001_af2pred_0001 (protein)
chain: SSSSSSAEKEASEVYVKAARALQEGDEEEAKELLRQLEEIAEEGNSEKAKLSVKNLRALLSSSSS
B30: il10ra_site1_normal_mot_HHH_b1_00999_000000080_0001_41_55_H_._HHH_b1_02251_0001_0000300042_0000002_0 (protein)
chain: SSSSDEEEERIEELLKEVEELRKEGNEEEAARLLQEAVRLAIELNDEELLREIWELAKKIGSSSS
B31: il10ra_site1_sap_16_mot_HHH_b2_05972_af2_000000208_0001_1_16_H_._HHH_b1_01803_0001_0000100002_0000001_0_0001_af2pred_0001 (protein)
chain: SSSSEQELMRFAARVVLELYEKLGLSREDFEELLELALRLVQEGFSEEEIREILEEVAKELSSSS
B32: il10ra_site1_normal_mot_HHH_b1_06363_000000103_0001_21_38_H_._HHH_b2_01051_0001_0000100003_0000002_0_af2pred_0001 (protein)
chain: SSSSSDEHRERVEELLEEAKEIDDDKERWQVLIEAYLIAYRNNDEELREEVREVAVRLVDSSSSS
B33: il10ra_site1_normal_mot_HHH_b2_07144_000000289_0001_1_18_H_._HHH_b2_05014_0001_0000100007_0000001_0 (protein)
chain: SSSSDAQELYELSREAAELRRNGNPEEAQKVVEEAEELARELNNFAILFAIRHLRRDIEKSSSSS
B34: il10ra_site1_sap_16_mot_HHH_b1_06788_af2_000000238_0001_19_36_H_._HHH_b1_08627_af2_0001_0000300018_0000001_0_0001 (protein)
chain: SSSSNEELEEIMELLRRAVELDHDGNPEEARKLLEEAEELAEEANNLLLRWQIEWVLKMLNSSSS
B35: il10ra_site1_normal_mot_HHH_b2_02933_000000199_0001_1_19_H_._HHH_b1_08288_0001_0000100004_0000002_0 (protein)
chain: SSSSSEEIWELLRRLIEAIREGDEELARELIEEIRRLIEEAGNDNFRFQLEFAEEVAERELSSSS
B36: il10ra_site1_sap_19_mot_HHH_b1_01011_000000096_0001_1_19_H_._HHH_b1_07527_0001_0000100007_0000002_0_0001_af2pred_0001 (protein)
chain: SSSSSVEEEVRELFEEAQEVLEEGDLKRAIELSRRLLELAAEHNDEEAAKLARELVKLLGSSSSS
B37: il10ra_site1_normal_mot_ems_p1-16H-GBL-16H-GABBL-16H_0429_0001_0001_0001_000000085_0001_1_17_H_._HHH_b1_02122_0001_0000200028_0000001_0 (protein)
chain: SSSSSDAEEIFELIRRILELIDDGDEEEARELLEELRELIEKAGNFVFEFSLRVLERELNSSSSS

target: il10ra, Q13651; test: yeast display titration

Apparent Kd, inactive:
B1 no binding seen
B2 no binding seen
B3 no binding seen
B4 no binding seen
B5 no binding seen
B6 no binding seen
B7 no binding seen
B8 no binding seen
B9 no binding seen
B10 no binding seen
B11 no binding seen
B12 no binding seen
B13 no binding seen
B14 no binding seen
B15 no binding seen
B16 no binding seen
B17 no binding seen
B18 no binding seen
B19 no binding seen
B20 no binding seen
B21 no binding seen
B22 no binding seen
B23 no binding seen
B24 no binding seen
B25 no binding seen
B26 no binding seen
B27 no binding seen
B28 no binding seen
B29 no binding seen
B30 no binding seen
B31 no binding seen
B32 no binding seen
B33 > 291 nM
B34 no binding seen
B35 no binding seen
B36 no binding seen
B37 no binding seen

Reprinted at random: two records from the list, in no set order.
Apparent Kd, inactive:
B26 no binding seen
B4 no binding seen
